Results reported in paper PMC12806394.
No constants are given. Whether binding was seen depends on the method and setting. In cells and extracts the contact can be indirect. Some binding calls cover weakened binding; strength is not graded here.

Amino acid sequences for entries named in this document (tags omitted).
UniProt P39748: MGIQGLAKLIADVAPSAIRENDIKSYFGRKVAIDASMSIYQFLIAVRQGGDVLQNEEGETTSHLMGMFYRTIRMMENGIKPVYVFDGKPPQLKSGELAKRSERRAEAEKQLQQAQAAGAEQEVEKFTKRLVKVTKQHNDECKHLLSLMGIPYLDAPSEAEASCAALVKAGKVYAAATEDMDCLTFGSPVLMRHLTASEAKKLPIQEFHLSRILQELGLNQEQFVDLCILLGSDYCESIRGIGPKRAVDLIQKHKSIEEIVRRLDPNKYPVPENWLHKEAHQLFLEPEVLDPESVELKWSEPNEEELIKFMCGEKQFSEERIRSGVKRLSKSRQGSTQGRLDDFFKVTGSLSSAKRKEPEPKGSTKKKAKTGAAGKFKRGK

What follows are binders tested against FEN1, wild type, overexpressed from plasmid (UniProt P39748) (assay: co-IP; 293T cells overexpressing the FEN1 plasmid, with or without Oxamate (50 mM, 24 h); whole cell extracts; immunoblot).

Binder	binding
RAD1 (protein, UniProt O60671 1-282) MPLLTQQIQDEDDQYSLVASLDNVRNLSTILKAIHFREHATCFATKNGIKVTVENAKCVQANAFIQAGIFQEFKVQEESVTFRINLTVLLDCLSIFGSSPMPGTLTALRMCYQGYGYPLMLFLEEGGVVTVCKINTQEPEETLDFDFCSTNVINKIILQSEGLREAFSELDMTSEVLQITMSPDKPYFRLSTFGNAGSSHLDYPKDSDLMEAFHCNQTQVNRYKISLLKPSTKALVLSCKVSIRTDNRGFLSLQYMIRNEDGQICFVEYYCCPDEEVPESES	binds
RAD9A (protein, UniProt Q99638 1-391) MKCLVTGGNVKVLGKAVHSLSRIGDELYLEPLEDGLSLRTVNSSRSAYACFLFAPLFFQQYQAATPGQDLLRCKILMKSFLSVFRSLAMLEKTVEKCCISLNGRSSRLVVQLHCKFGVRKTHNLSFQDCESLQAVFDPASCPHMLRAPARVLGEAVLPFSPALAEVTLGIGRGRRVILRSYHEEEADSTAKAMVTEMCLGEEDFQQLQAQEGVAITFCLKEFRGLLSFAESANLNLSIHFDAPGRPAIFTIKDSLLDGHFVLATLSDTDSHSQDLGSPERHQPVPQLQAHSTPHPDDFANDDIDSYMIAMETTIGNEGSRVLPSISLSPGPQPPKSPGPHSEEEDEAEPSTVPGTPPPKKFRSLFFGSILAPVRSPQGPSPVLAEDSEGEG	binds
HUS1 (protein, UniProt O60921 1-280) MKFRAKIVDGACLNHFTRISNMIAKLAKTCTLRISPDKLNFILCDKLANGGVSMWCELEQENFFNEFQMEGVSAENNEIYLELTSENLSRALKTAQNARALKIKLTNKHFPCLTVSVELLSMSSSSRIVTHDIPIKVIPRKLWKDLQEPVVPDPDVSIYLPVLKTMKSVVEKMKNISNHLVIEANLDGELNLKIETELVCVTTHFKDLGNPPLASESTHEDRNVEHMAEVHIDIRKLLQFLAGQQVNPTKALCNIVNNKMVHFDLLHEDVSLQYFIPALS	binds
